Laboratory results: PubChem BioAssay AID1259405 (NCATS, 2018)

Assay: 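Knock-downs that lift recombinant protein yield in hamster ovary cells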 (primary screen)
Cell system: Chinese hamster CHO-K1 ovary cells with stable secreted eGFP expression
Reagents: single siRNA against mouse genes, 0.8 pmol siRNA per well (2 µl of 400 nM stock)
Timing: 3 days
Read-out: 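Per-well intracellular GFP measured by laser scanning cytometry, plus viability from ATP luminescence, each relative to plate median of non-targeting control wells, in %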
Scale: GFP, % of control: higher = more GFP per well, higher productivity
Rule for the call: 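a knock-down is called active if GFP reaches 120% or more of non-targeting control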
Shown is one part, drawn at random, of about 50,000 reagents tested. About 4,000 of them (8%) count as active. 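Mouse siRNA library applied to hamster cells; one well for each siRNA.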 Reagents against one gene are numbered here. Not all columns of the deposit are shown.

GFP, % of control, by target and reagent
Vmn1r5 (GeneID 171192): #1 148 active; #2 123 active; #3 75.1 inactive
Or4n5 (GeneID 258487): #1 86.9 inactive; #2 92.5 inactive; #3 67.9 inactive
Strip1 (GeneID 229707): #1 56.4 inactive; #2 64.2 inactive; #3 53.8 inactive
Krtap15-1 (GeneID 26560): #1 76.9 inactive; #2 103 inactive; #3 77.3 inactive
Gatad2b (GeneID 229542): #1 120 active; #2 101 inactive; #3 64.4 inactive
Mrpl53 (GeneID 68499): #1 72.3 inactive; #2 61.7 inactive; #3 69.6 inactive
Pheta1 (GeneID 231717): #1 40.4 inactive; #2 49.1 inactive; #3 103 inactive
Phactr4 (GeneID 100169): #1 143 active; #2 120 active; #3 92.7 inactive
Riox1 (GeneID 71952): #1 41.1 inactive; #2 40.1 inactive; #3 87.4 inactive
Mxd1 (GeneID 17119): #1 82.4 inactive; #2 77.9 inactive; #3 54.1 inactive
Kcnj10 (GeneID 16513): #1 101 inactive; #2 71.7 inactive; #3 74.2 inactive
Kcnj11 (GeneID 16514): #1 79.4 inactive; #2 78.4 inactive; #3 105 inactive

Called active, among the entries above:
GFP, % of control, by target and reagent
Vmn1r5 (GeneID 171192): #1 148 active; #2 123 active
Gatad2b (GeneID 229542): #1 120 active
Phactr4 (GeneID 100169): #1 143 active; #2 120 active

Further results follow:
GFP, % of control, by target and reagent
Or51a42 (GeneID 259081): #1 93.5 inactive; #2 123 active; #3 23.8 inactive
Sf3b1 (GeneID 81898): #1 76 inactive; #2 106 inactive; #3 63.5 inactive
Trim28 (GeneID 21849): #1 64 inactive; #2 65.1 inactive
Vmn1r218 (GeneID 171256): #1 76.2 inactive; #2 118 inactive; #3 77.8 inactive
Rabl2 (GeneID 68708): #1 129 active; #2 76.8 inactive; #3 58.2 inactive
Tmsb15l (GeneID 399591): #1 60.5 inactive; #2 60 inactive; #3 120 active
Gm5134 (GeneID 333669): #1 76.7 inactive; #2 46.1 inactive; #3 102 inactive
Klra22 (GeneID 93969): #1 66.4 inactive; #2 137 active; #3 179 active
Snap25 (GeneID 20614): #1 74.4 inactive; #2 66 inactive
Zc3hav1 (GeneID 78781): #1 26.6 inactive; #2 90.5 inactive; #3 111 inactive
Coq5 (GeneID 52064): #1 125 active; #2 75.2 inactive; #3 48.2 inactive
Pgcka1 (GeneID 76261): #1 99.8 inactive; #2 136 active; #3 85.4 inactive
Hsd17b7 (GeneID 15490): #1 81.8 inactive; #2 50.8 inactive; #3 65.3 inactive
Tsga13 (GeneID 116732): #1 79.9 inactive; #2 90.8 inactive; #3 178 active
Eapp (GeneID 66266): #1 78.6 inactive; #2 58.7 inactive; #3 59.4 inactive
Zeb1 (GeneID 21417): #1 84.1 inactive; #2 82.8 inactive; #3 126 active
Tnk2 (GeneID 51789): #1 110 inactive; #2 69.4 inactive; #3 86.4 inactive
